# Key:
# Format in all cases: cell-based, human
# [1] = test system: Saos-2 cells; assay: In cellulo FCS diffusion time; conditions: FCS in Saos-2 cells
# [2] = test system: Rab7-GFP late endosomes in Saos-2 cells; assay: Confocal colocalization with late endosome marker; conditions: 2^SiR 600 nM, 30 min
# [3] = test system: Rab5-GFP early endosomes in Saos-2 cells; assay: Confocal colocalization with early endosome marker; conditions: 2^SiR 600 nM, 30 min
# [4] = test system: Lamp1-GFP lysosomes in Saos-2 cells; assay: Confocal colocalization with lysosome marker; conditions: 2^SiR 600 nM, 30 min
# [5] = CORVET-deficient cells (TGFBRAP1 siRNA)
# [6] = HOPS-deficient cells (VPS39 siRNA)
# [7] = non-targeting (RISC-Free) siRNA
Substance,Average τdiff in cellulo at 37 °C In cytosol [1] [ms],Average τdiff in cellulo at 37 °C In nucleus [1] [ms],"Pearson r, colocalization with LEs [2, 5]","Pearson r, colocalization with LEs [2, 6]","Pearson r, colocalization with LE marker Rab7-GFP [2, 7]","Pearson r, colocalization with EEs [3, 5]","Pearson r, colocalization with EEs [3, 6]","Pearson r, colocalization with EE marker Rab5-GFP [3, 7]","Pearson r, colocalization with LYs [4, 5]","Pearson r, colocalization with LYs [4, 6]","Pearson r, colocalization with LY marker Lamp1-GFP [4, 7]"
Ac-KKKKKKKKK-NH2 [Lys9^UL],0.274 ± 0.019,0.236 ± 0.015,,,,,,,,,
K^SiR-WYSCNVCGKAFVLSRHLNRHLRVHRRAT-CONH2 [2^SiR],,,0.21 ± 0.015,0.21 ± 0.016,0.25 ± 0.016,0.083 ± 0.013,0.05 ± 0.01,0.05 ± 0.01,0.47 ± 0.021,0.35 ± 0.026,0.57 ± 0.027

# Reference: doi:10.1101/374926v1 (bioRxiv, 2018)
